In this experiment the target is Forkhead Box P1 (FOXP1), endogenous in C2C12 (mouse (endogenous in C2C12)) (UniProt P58462). Kind of experiment: co-IP; nuclear lysates of C2C12 myocytes differentiated by serum withdrawal (48 hr in the text, 3 days in the legend), mild nonionic detergent; precipitated with anti-FOXP1 Ab, blotted with anti-MyoD Ab.

Sequences of proteins named here, by UniProt entry; tags and fusion partners are left off.
UniProt P58462: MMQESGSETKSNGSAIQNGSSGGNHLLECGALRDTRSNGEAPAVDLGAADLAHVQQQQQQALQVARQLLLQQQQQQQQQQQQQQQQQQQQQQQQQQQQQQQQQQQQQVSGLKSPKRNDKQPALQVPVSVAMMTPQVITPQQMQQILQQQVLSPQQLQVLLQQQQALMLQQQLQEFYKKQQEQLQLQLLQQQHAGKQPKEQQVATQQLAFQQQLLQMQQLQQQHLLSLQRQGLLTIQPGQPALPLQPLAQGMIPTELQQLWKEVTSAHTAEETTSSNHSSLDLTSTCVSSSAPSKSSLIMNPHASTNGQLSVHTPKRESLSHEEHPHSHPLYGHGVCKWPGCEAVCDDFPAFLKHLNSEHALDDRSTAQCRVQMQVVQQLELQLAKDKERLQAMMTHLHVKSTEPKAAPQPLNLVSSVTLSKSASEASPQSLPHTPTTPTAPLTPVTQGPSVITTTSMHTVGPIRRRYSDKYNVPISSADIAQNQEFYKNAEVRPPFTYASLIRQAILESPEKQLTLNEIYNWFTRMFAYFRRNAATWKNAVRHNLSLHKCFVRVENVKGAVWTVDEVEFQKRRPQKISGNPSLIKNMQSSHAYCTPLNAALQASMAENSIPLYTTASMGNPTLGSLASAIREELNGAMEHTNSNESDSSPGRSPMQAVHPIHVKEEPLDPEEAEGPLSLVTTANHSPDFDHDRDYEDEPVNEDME
UniProt P10085: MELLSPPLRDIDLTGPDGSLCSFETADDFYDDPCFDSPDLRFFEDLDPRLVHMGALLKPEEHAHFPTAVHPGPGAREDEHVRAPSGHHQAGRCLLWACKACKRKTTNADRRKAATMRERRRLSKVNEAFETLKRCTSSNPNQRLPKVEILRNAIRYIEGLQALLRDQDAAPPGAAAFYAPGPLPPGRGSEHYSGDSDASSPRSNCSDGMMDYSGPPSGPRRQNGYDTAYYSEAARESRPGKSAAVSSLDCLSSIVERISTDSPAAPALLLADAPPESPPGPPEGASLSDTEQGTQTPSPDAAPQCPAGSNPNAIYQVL

This passage reports binding results from publication PMC7861563, “FOXP1 Interacts with MyoD to Repress its Transcription and Myoblast Conversion” (Journal of cellular signaling, 2021).

No constants are given. Whether binding was seen depends on the method and setting. Binding seen in cells or lysates may run through a third protein. Some entries that bind do so weakly or less than the wild type.

As to “Myoblast Determination protein 1 (MYOD1/MyoD), endogenous in C2C12 (from UniProt P10085 1-318)”, the binding result was “binds”.
